Hit rate of the full screen: of about 330,000 compounds, about 7,700 (2.3%) were called active. Inconclusive results, whose numbers are uncertain, are shown with a selection of clear calls. Calls come from the whole dose curve; as a rule, active = well fitted inhibition curve with a large enough effect; inconclusive = small, poorly fitted or top-dose-only effect, or effect the other way; inactive = flat fitted curve, though single readings scatter. A potency beside an inconclusive call is a rough fit, not a confirmed value.
Assay: qHTS screen for small molecules that inhibit ELG1-dependent DNA repair in human embryonic kidney (HEK293T) cells expressing luciferase-tagged ELG1; note: nearly all actives have a fitted effect of over 55% in size
Conditions: HEK293T ELG1-luciferase reporter, luminescence, 16 h, DNA damage induced by 5-fluorouridine; series mostly up to 46.1 µM
How it was run: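 DMSO vehicle served as the neutral condition. Each well held 2,000 cells given 5-fluorouridine plus compound; after 16 hr at 37 °C/5% CO2, ONE-Glo was added and luciferase measured 30 min later.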
Potency is the fitted concentration of half-maximal effect.

SMILES | Potency
COc1ccccc1NC(=O)Nc1cccc(C(=O)O)c1 | inconclusive: 0.0231 µM [activator, partial curve, poor fit]
Cc1ccc(NC(=S)NC2CCCC2)c(C)c1 | inactive
COc1cccc(-c2nc3sc4c(c3c(=O)[nH]2)CCCCC4)c1 | inconclusive: 2.31 µM [activator, full curve]
O=C(COc1ccccc1)Nc1ccccc1N1CCN(c2ccccc2)CC1 | inconclusive: 4.11 µM [inhibitor, full curve]
O=C(c1ccc([N+](=O)[O-])o1)N1CCN(c2nc3c(Cl)cccc3s2)CC1 | inconclusive: 4.61 µM [inhibitor, single point]
O=C(NC(Cc1ccccc1)C(=O)O)/C(=C\c1ccc(Cl)cc1)NC(=O)c1ccco1 (configuration not stated) | inactive
CCc1cccc(CC)c1NC(=O)CSc1nc2ccc(N3C(=O)C4C5C=CC(C5)C4C3=O)cc2s1 (configuration not stated) | inconclusive: 20.6 µM [inhibitor, partial curve]
CCc1cccc(NC(=O)c2ccc(Br)o2)c1 | inconclusive: 5.17 µM [activator, partial curve]
CCOc1ccc(CNS(=O)(=O)c2ccc(-c3ccc(=O)[nH]n3)o2)cc1OC | inconclusive: 20.6 µM [activator, partial curve, poor fit]
O=C(N/C(=C/c1ccc(Br)cc1)C(=O)N1CCCCC1)c1ccccc1F | inconclusive: 16.4 µM [inhibitor, partial curve, poor fit]
NNC(=O)c1cc(C23CC4CC(CC(C4)C2)C3)[nH]n1 | inconclusive: 25.9 µM [activator, single point]
CC(/C=C1\SC(=S)N(CCCC(=O)Nc2ccc(C(=O)O)cc2)C1=O)=C\c1ccccc1 | inconclusive: 14.6 µM [activator, partial curve]
O=C(c1ccncc1)N1CCN(S(=O)(=O)c2ccccc2F)CC1 | inactive
CC1=NN(c2nc(-c3ccc(C)cc3)cs2)C(=O)C1N=Nc1cccc(C)c1 (configuration not stated) | inconclusive: 10.3 µM [activator, partial curve]
Cc1[nH]nc(-c2ccc(O)cc2O)c1Oc1ccccc1 | inconclusive: 20.6 µM [inhibitor, single point]
CCS(=O)(=O)c1ccc(N=Nc2ccc(O)c3ncccc23)c(OC)c1 | inconclusive: 3.66 µM [inhibitor, single point]
COc1ccccc1NC(=O)c1ccc(NC(=O)c2ccco2)cc1 | inconclusive: 1.16 µM [activator, single point]
O=C(NCc1nc2ccccc2[nH]1)C1=C[C@H](c2csc3ccccc23)C[C@H](OCc2ccc(CO)cc2)O1 | inconclusive: 23.1 µM [inhibitor, partial curve, poor fit]
O=C(NCc1ccc(F)cc1)c1cnc(Cl)c(Cl)c1 | inactive
CC(C(=O)NC1CCCC1)N(c1ccc(Oc2ccccc2)cc1)S(C)(=O)=O (configuration not stated) | inconclusive: 18.3 µM [inhibitor, single point]
CCOc1ccccc1N(CC(=O)NC1CCCCC1)C(=O)c1nsc(Cl)c1Cl | inconclusive: 20.6 µM [inhibitor, partial curve]

Of the compounds above, three contain a COOH group:
SMILES | Potency
COc1ccccc1NC(=O)Nc1cccc(C(=O)O)c1 | inconclusive: 0.0231 µM [activator, partial curve, poor fit]
O=C(NC(Cc1ccccc1)C(=O)O)/C(=C\c1ccc(Cl)cc1)NC(=O)c1ccco1 (configuration not stated) | inactive
CC(/C=C1\SC(=S)N(CCCC(=O)Nc2ccc(C(=O)O)cc2)C1=O)=C\c1ccccc1 | inconclusive: 14.6 µM [activator, partial curve]

(cont.)

SMILES | Potency
C/C(=N/NC(=O)C1COc2ccccc2O1)c1ccc(Br)s1 (configuration not stated) | inactive
O=C(CCNc1n[nH]c(=O)[nH]c1=O)N/N=C\c1cccc(OCc2ccccc2)c1 | inactive
O=C(c1cccc(-c2ccco2)c1)N1CCCC(N2CCN(c3ccc(F)cc3)CC2)C1 (configuration not stated) | inconclusive: 29.1 µM [inhibitor, single point]
COc1ccc(COc2ncnc3ccc(Br)cc23)cc1F | inactive
CC(=O)Nc1cccc(-c2csc(Nc3ccc(C)cn3)n2)c1 | inconclusive: 0.651 µM [activator, full curve]
CC(=O)NNc1ncnc2c1cnn2-c1ccc(C)cc1 | inconclusive: 18.3 µM [activator, partial curve]
O=C(Nc1ccc2nc(-c3ccco3)c(-c3ccco3)nc2c1)NC1CC1 | inconclusive: 32.6 µM [inhibitor, partial curve, poor fit]
Cc1onc(-c2c(F)cccc2Cl)c1C(=O)N(C)CCc1ccccn1 | inactive
CCOC(=O)c1sc2nc3c(cc2c1N)COC(C)(CC)C3 (configuration not stated) | inconclusive: 1.03 µM [activator, full curve]
O=C(C1CCCCC1)N1CCN=C1SCc1cccc([N+](=O)[O-])c1 | inconclusive: 8.2 µM [inhibitor, partial curve]
C=CCN(C(=O)c1csnn1)C(C(=O)NC1CCCC1)c1ccccc1F (configuration not stated) | inactive
CC(C)OC(=O)CSc1nnc(-c2cnccn2)n1-c1ccc(Cl)cc1 | inconclusive: 35.5 µM [inhibitor, single point]
COc1cccc(-c2nc(-c3ccccn3)no2)c1OC | inconclusive: 12.6 µM [activator, partial curve]
COc1ccc(N2CCN(C(=O)COC(=O)c3cc(S(=O)(=O)N(C)C)ccc3N3CCCC3)CC2)cc1 | inconclusive: 29.1 µM [inhibitor, single point]
Cc1csc2c(N3CCN(C(=O)Nc4ccc(Cl)c(Cl)c4)CC3)ncnc12 | active: 18.3 µM
Brc1ccc(C2=Nn3c(nnc3-c3n[nH]c4c3CCC4)SC2)cc1 | inactive
c1ccc(-c2cn(C[C@H]3CC[C@H](Cn4cc(-c5ccccn5)nn4)O3)nn2)nc1 | inactive
COc1ccc(C(C(=O)NC2CCCCC2)N(C(=O)c2snc(C(N)=O)c2N)c2ccccc2OC)cc1 (configuration not stated) | inconclusive: 32.6 µM [inhibitor, single point]
Clc1ccc(-c2cnc3n2CCCCC3)cc1 | inconclusive: 23.1 µM [inhibitor, partial curve]
Cc1ccc(N(CC(O)Cn2c3ccccc3c3ccccc32)S(C)(=O)=O)cc1 (configuration not stated) | inconclusive: 32.6 µM [inhibitor, partial curve, poor fit]
CCN(CC)c1ccc(C2C3CCCCC3(O)CCN2CC(=O)Nc2ccccc2)cc1 (configuration not stated) | inconclusive: 23.1 µM [inhibitor, partial curve]
